Test results: US20240082392A1, “USE OF SYNTHETIC PEPTIDE FOR THE INDUCTION OF ANTITUMOR AND ANTIVIRAL IMMUNITY” (CENTRO DE INGENIERÍA GENÉTICA Y BIOTECNOLOGÍA, priority 2020, published 2024)
Part of at least one peptide drawing is inferred or uncertain, most often the ends. Marks after values point to notes of the source that are not given here. Where a SMILES comes first, the peptide text is derived from it. Bridges are numbered along the chain shown (N, C = ends).

Legend:
L1210 cells [1] = experiment: Tumor microenvironment in DBA/2 mice: serum cytokines and intratumoral cell populations; type: in vivo
Method: To study whether the peptide identified as SEQ ID NO: 1 was capable of modulating the tumor microenvironment, female DBA/2 mice, 6-8 weeks old, and between 17-19 grams were inoculated with 0.5×10^6 L1210 cells, subcutaneously, into right flank (inguinal inoculation). Seven days after tumor challenge, 42 mice with palpable and non-measurable tumor were selected, which were random assigned to six groups of seven animals each. […] DOX (10 mM) and Tat peptide (20 mg/kg), were administered intratumorally, in a final volume of 50 μL, a daily inoculation for five days. The compound CX4945 (75 mg/kg) was administered in 25 mM NaH2PO4 buffer, twice a day, orally, for five days. Seven days after the end of the treatment, the mice were euthanized to obtain the tumors (day 18 of the procedure). Before sacrificing the mice, blood samples were obtained for the cytokines (IL-6, IL-10, IL-12p70, TNF-α) detection by ELISA. Tumors were cut into small pieces and transferred to gentleMACS tubes with RPMI medium, supplemented with an enzyme cocktail from Tumor Dissociation kit (Miltenyi Biotech, Germany). Tumor dissociation was performed using the gentleMACS™ Dissociator kit and a tumor dissociation kit (Miltenyi Biotech, Germany). The digested suspension was filtered, centrifuged and labeled with specific antibodies against CD8, CD4, Foxp3, CD11c, CD86 and CD40.

L1210 cells [2] = experiment: Vaccination with treated tumor cells, then challenge with live cells; type: in vivo, DBA/2 mice; conditions: vaccinated with L1210 cells treated in vitro with 40 μM for 3 hours
Method: In order to explore whether the cell death induced by the peptide identified as SEQ ID NO: 1 had any immunomodulatory effect, a vaccination schedule was performed in mice with tumor cells previously treated with the peptide identified as SEQ ID NO: 1. For this purpose, 1×10^6 L1210 cells treated in vitro with 40 μM of the peptide identified as SEQ ID NO: 1, or time-matched untreated cells during 3 hours were subcutaneously injected in 0.1 mL in the inguinal area into right flank of 6-8 weeks female DBA/2 mice. After seven days, 1×10^6 live L1210 cells were inoculated on opposite flank, and tumor growth and volume were evaluated until day 45. Tumors were measured with Vernier calipers, three times a week, tumor volume was estimated using the formula: Volume=width^2 (mm)×length/2 (mm). As a positive control, cells treated with 15 μM DOX for 24 hours were used for vaccination. A group vaccinated with 5 μM CX4945-treated cells for 24 hours was also included. In total 4 groups were formed of 10 mice each group.

3LL-OVA cells = experiment: Cellular immune response, IFN-γ ELISPOT after inoculation of treated cells; type: in vivo, C57/BL6 mice; conditions: 3LL-OVA cells treated with 40 μM peptide 3 hours, 5 μM CX4945 or 40 μM Tat 3 hours; lymph node cells after 5 days
OCI-AML3 cells = experiment: Phagocytosis of treated tumor cells by M1 and M2 macrophages; type: cell-based; conditions: peptide 40 μM and 10 μM 5 hours
Method: Treatment with the peptide identified as SEQ ID NO: 1, as described in examples 2 and 3, is capable of increasing “eat me” signals and decreasing “don't eat me” signals. Therefore, it fostered to evaluate whether the treatment with the peptide identified as SEQ ID NO: 1 facilitate phagocytosis of tumor cells by macrophages, and whether this is performed by M1 or M2 macrophages. For that purpose, HL-60 and OCI-AML3 leukemia tumor cell lines were previously stained with 0.5 μM CFSE and treated with 10 or 40 μM of the peptide identified as SEQ ID NO: 1, for five hours, 5 μM CX4945 for 24 hours or 40 μM Tat during 5 hours. Subsequently, cells were washed and co-cultured with each type of M1 and M2 macrophages, at a 1:1 ratio for three hours. Different types of macrophages were obtained from PBMC of healthy donors by Ficoll™ gradient. Monocytes were purified by positive selection, using CD14 beads with an MS column (Miltenyi Biotech, Germany), obtaining 96% purity. Monocytes were seeded at 0.25×10^6 cells/mL/well, in 12-wells plates and were induced with 100 ng/mL of GM-CSF, for seven days, and with 50 ng/mL of IFN-γ for last 24 hours, to obtain M1 macrophages. M2 macrophages were induced with 50 ng/mL of M-CSF for seven days and 100 ng/mL of IL-10 for last 24 hours. […]

PDL1 in A549 cells = experiment: PDL1 levels by flow cytometry; type: cell-based; conditions: 30 μM peptide, 5 μM CX4945 or 30 μM Tat peptide, 24 hours
Method: (§1) Immune checkpoints are currently an important target in cancer immunotherapy, due to their immunosuppressive role during the course of this disease. Taking this into account, effect of the peptide identified as SEQ ID NO: 1 on modulation of PDL1 levels in two non-small cell lung cancer cell lines: […], was evaluated. For that, 5×10^4 cells were seeded in 24-well plates. The day after, cells were treated with 30 μM peptide identified as SEQ ID NO: 1; 5 μM CX4945 or 30 μM Tat peptide, for 24 hours. After treatment, cells were collected, staining with an anti-PDL1 antibody and analyzed by flow cytometry.

PDL1 in H460 cells = experiment: PDL1 levels by flow cytometry; type: cell-based; conditions: 30 μM peptide, 5 μM CX4945 or 30 μM Tat peptide, 24 hours
Method: as §1

[3] = 20 mg/kg intratumoral or intravenous, daily for five days, seven days after end of treatment
[4] = 20 mg/kg, intratumoral and intravenous routes

CSCC[C@@H]1NC(=O)[C@H](Cc2c[nH]c3ccccc23)NC(=O)[C@@H](NC(=O)[C@H](C)NC(=O)[C@H](CCC(N)=O)NC(=O)[C@@H]2CCCN2C(=O)[C@@H]2CCCN2C(=O)[C@H](CCCNC(=N)N)NC(=O)[C@H](CCCNC(=N)N)NC(=O)[C@H](CCCNC(=N)N)NC(=O)[C@H](CCC(N)=O)NC(=O)[C@H](CCCNC(=N)N)NC(=O)[C@H](CCCNC(=N)N)NC(=O)[C@H](CCCCN)NC(=O)[C@H](CCCCN)NC(=O)[C@H](CCCNC(=N)N)NC(=O)CN)CSSC[C@@H](C(=O)O)NC(=O)[C@H]([C@@H](C)O)NC(=O)CNC(=O)[C@H](CC(C)C)NC(=O)[C@H](Cc2c[nH]cn2)NC(=O)[C@H](CCCNC(=N)N)NC(=O)[C@@H]2CCCN2C(=O)[C@H](CO)NC1=O [peptide identified as SEQ ID NO: 1] (H-GRKKRRQRRRPPQACWMSPRHLGTC-OH; disulfide 15-25)
IL12p70 levels in peripheral blood (L1210 cells [1]; [3]): significant increase | IL-6 levels in peripheral blood (L1210 cells [1]; [3]): significant increase | IL-10 levels in peripheral blood (L1210 cells [1]; [3]): significantly reduced | TNF-α levels in peripheral blood (L1210 cells [1]; [3]): significant increase | in situ maturation of dendritic cells (CD86 and MHC-II maturation markers) (L1210 cells [1]; [4]): increase | intratumoral levels of CD4+ T cells (L1210 cells [1]; [4]): significant increase | intratumoral levels of CD8+ T cells (L1210 cells [1]; [4]): significant increase | intratumoral Foxp3+ T cell levels (L1210 cells [1]; peptide 20 mg/kg, DOX 10 mM, Tat 20 mg/kg, CX4945 75 mg/kg oral): significant decrease | volume of tumors after challenge with live L1210 cells (L1210 cells [2]; p<0.05): lower than the rest of the groups | mice remaining tumor-free until the end of the study (L1210 cells [2]; until day 45): seven out of ten | response of IFN-γ-secreting effector cells (ELISPOT) against OVA and OVA class I peptide (3LL-OVA cells): significantly higher | susceptibility to be phagocytosed by M2 macrophages (OCI-AML3 cells): not M2 macrophages | susceptibility to be phagocytosed by M1 macrophages (OCI-AML3 cells; CX4945 5 μM 24 hours, Tat 40 μM 5 hours): increased | % PDL1+ cells (PDL1 in A549 cells): 90.3** % | IFM (PDL1 in A549 cells): 48.3* | PDL1 expression (PDL1 in A549 cells; in words): significant increase | % PDL1+ cells (PDL1 in H460 cells): 86.5** % | IFM (PDL1 in H460 cells): 45.0* | PDL1 expression (PDL1 in H460 cells; in words): significant increase
